Data as given in PubChem BioAssay AID493014 (National Center for Advancing Translational Sciences (NCATS), 2011).
The list shows a part of the results. Further columns of the screen follow, without active or inactive calls. Compounds called inactive in the main read-out are mostly missing here. The note in brackets gives the kind of curve behind each potency; many fits are weak.

Test: qHTS Assay to Find Inhibitors of Chronic Active B-Cell Receptor Signaling
Details: ABC-DLBCL IkBa-CBG/CBR reporter, luminescence ratio (green luciferase fused to IkBa over red control in TMD8 lymphoma cells), 4 h
Method in brief: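 Cell line TMD8 (human ABC DLBCL), stably expressing tet-inducible CBG68-IkBa fusion and CBR; IMDM/0.5% FBS; cpd up to 46 uM; dox induction, 4 h, 37C/5% CO2; dual luminescence; green/red ratio; MG132 control.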

[1] = measured here: CBR red luminescence, cell number
[2] = measured here: IkBa-CBG green luminescence

Row | SMILES | AC50 [1] | AC50 [2]
1 | CCCc1nnc(NC(=O)CSc2ncn[nH]2)s1 | 0.562 µM [falling, full curve, poor fit] | 
2 | O=C(/C=C/c1c[nH]c2ccccc12)c1cccc2ccccc12 | 3.55 µM [falling, partial curve, poor fit] | 
3 | CC(=O)NS(=O)(=O)c1ccc(N=c2ssc3c2-c2ccc(C)cc2NC3(C)C)cc1 | 11.6 µM [falling, partial curve] | 
4 | CCOC(=O)N1CCN(Cc2cn[nH]c2-c2cc3ccccc3o2)CC1 | 14.1 µM [falling, partial curve] | 
5 | Cc1nc2c([nH]c3ccc(Br)cc32)s1 | 20.6 µM [rising, partial curve, poor fit] | 
6 | CC1CCCC(C)N1/N=C/c1ccc([N+](=O)[O-])cc1 (stereo not drawn) | 3.16 µM [rising, full curve] | 
7 | CCN(Cc1nc2ccccc2c(=O)[nH]1)Cc1nc2ccsc2c(=O)[nH]1 | 22.4 µM [falling, single point] | 11.2 µM [falling, partial curve, poor fit]
8 | COc1ccc2c(c1)sc(N)[n+]2Cc1cc(C)cc2cccnc12 |  | 18.4 µM [falling, single point]
9 | O=C1C(Nc2ccccc2)=C/C(=N/S(=O)(=O)c2cccs2)c2ccccc21 | 4.61 µM [falling, partial curve] | 20.6 µM [rising, single point]
10 | CC(=O)N=C1SC2CS(=O)(=O)CC2N1c1ccc(-c2nc3ccc(C)cc3s2)cc1 (stereo not drawn) | 11.6 µM [rising, partial curve, poor fit] | 
11 | Cc1ccc(-c2ccc(=O)n(CCC(=O)NCCc3ccccc3)n2)cc1 | 5.01 µM [rising, single point] | 
12 | CCOC(=O)C1CCN(S(=O)(=O)c2ccc3c4c(cccc24)C(=O)N3)CC1 | 5.62 µM [rising, full curve, poor fit] | 
13 | COCCN(Cc1ccc(F)cc1)C(=O)c1cc2ccccc2oc1=O | 22.4 µM [rising, single point] | 
14 | Cc1ccc(NCc2ccc(O)c3ncccc23)cc1C | 20 µM [falling, partial curve, poor fit] | 
15 | COc1ccc(OC)c(C(=O)N2CCC(CCC(=O)NC3CC3)CC2)c1 | 1.58 µM [falling, partial curve, poor fit] | 
16 | CC(C)(C)c1csc(Sc2ncccc2[N+](=O)[O-])n1 | 5.62 µM [rising, full curve, poor fit] | 
17 | COc1cccc(-c2nc3ccc(C(=O)NC(C)Cc4cccnc4)cc3o2)c1 (stereo not drawn) | 3.55 µM [rising, partial curve] | 
18 | COc1ccc(-c2nc3scc(CCNS(=O)(=O)c4ccc(F)cc4C)n3n2)cc1 | 35.5 µM [falling, single point] | 
19 | S=c1[nH]nc(C2CCCCC2)n1/N=C/c1ccc(Cl)cc1 | 22.4 µM [rising, single point] | 
20 | COc1cccc(C(=O)Nc2ccc(NC(=O)C3CC3)nc2)c1 | 6.31 µM [falling, full curve] | 
21 | COc1ccc(Nc2cc3n(c(=O)n2)CCc2cc(OC)c(OC)cc2-3)cc1 |  | 20 µM [falling, partial curve, poor fit]

Nothing new here: three of the compounds above.
Row | SMILES | AC50 [1] | AC50 [2]
5 | Cc1nc2c([nH]c3ccc(Br)cc32)s1 | 20.6 µM [rising, partial curve, poor fit] | 
6 | CC1CCCC(C)N1/N=C/c1ccc([N+](=O)[O-])cc1 (stereo not drawn) | 3.16 µM [rising, full curve] | 
7 | CCN(Cc1nc2ccccc2c(=O)[nH]1)Cc1nc2ccsc2c(=O)[nH]1 | 22.4 µM [falling, single point] | 11.2 µM [falling, partial curve, poor fit]

Continuation:

Row | SMILES | AC50 [1] | AC50 [2]
22 | CCc1nnc(NC(=O)CSc2nnc(C)n2CC2CCCO2)s1 (stereo not drawn) | 10.3 µM [falling, partial curve] | 
23 | Cc1cc2oc(=O)cc(Cn3ncc(Cl)c(Cl)c3=O)c2cc1Cl | 1 µM [falling, full curve] | 
24 | O=C(Nc1cccc(-c2nc3ccccc3[nH]2)c1)c1ccco1 | 5.62 µM [falling, full curve] | 
25 | CCS(=O)(=O)N1CCN(C(=O)c2ccc(-c3ccccc3)cc2)CC1 | 3.16 µM [rising, partial curve, poor fit] | 
26 | Fc1ccccc1/C=N/n1cnnc1 | 0.731 µM [rising, partial curve, poor fit] | 
27 | c1ccc(C[n+]2c(-c3ccccc3)csc2Nc2ccccc2)cc1 | 7.31 µM [rising, partial curve, poor fit] | 
28 | CC(C)c1ccc(NC(=O)CNCC(c2ccccc2)N(C)C)cc1 (stereo not drawn) | 12.6 µM [falling, single point] | 
29 | O=C(C1CC1)N1CCC(c2nc(-c3ccc(S(=O)(=O)NCC4CCCO4)cc3)no2)CC1 (stereo not drawn) | 1.64 µM [falling, partial curve] | 
30 | CCOCCCNC(=O)c1oc2ccc(S(=O)(=O)N3CCOCC3)cc2c1C | 14.1 µM [rising, single point] | 
31 | COc1ccc(CSc2nc(N3CCOCC3)c3c(c2C#N)CC(C)(C)OC3)cc1 | 0.0731 µM [rising, full curve, poor fit] | 
32 | O=C(CN1C(=O)S/C(=C\c2cc(Cl)c(O)c(Cl)c2)C1=O)Nc1ccccc1 | 35.5 µM [falling, single point] | 
33 | Cc1ccc(C)c(N(CC(=O)NC2CCCCC2)C(=O)c2snc(C(N)=O)c2N)c1 | 3.55 µM [falling, single point] | 
34 | CCOC(=O)C1CCCN(C(=O)c2cc(S(=O)(=O)Nc3ccccc3OC)ccc2C)C1 (stereo not drawn) | 17.8 µM [falling, partial curve, poor fit] | 
35 | CC(C)Cn1c(N)c(C(=O)NCc2cccs2)c2nc3ccccc3nc21 | 13 µM [falling, partial curve] | 5.8 µM [rising, partial curve, poor fit]
36 | COc1cccc(-c2nnc3sc(-c4cccs4)nn23)c1 | 3.98 µM [falling, partial curve, poor fit] | 
37 | COc1cc(C(=O)NCCCc2ccccc2)cc(OC)c1OC | 1.78 µM [falling, partial curve, poor fit] | 
38 | COc1ccccc1/C=C/C(=O)N1CCC(c2ccccc2)C1 (stereo not drawn) | 1.84 µM [falling, partial curve] | 
39 | Cc1sc2ncnc(N/N=C/c3ccccc3O)c2c1C | 0.326 µM [falling, full curve] | 
40 | COc1cc(C)nc(NCc2ccccc2)n1 | 23.1 µM [rising, partial curve] | 18.4 µM [falling, partial curve, poor fit]
41 | O=c1[nH]c(SCc2ccccc2)nnc1-c1ccccc1 | 1.16 µM [falling, full curve] | 
42 | COc1cc(CNC2CCCCC2OC)cc(OC)c1 (stereo not drawn) | 7.08 µM [rising, full curve, poor fit] | 

Row | SMILES | AC50 [1] | AC50 [2]
43 | Clc1ccc(OCCCCCN2CCOCC2)cc1 | 28.2 µM [rising, partial curve, poor fit] | 
44 | Cc1cc(C)cc(OCc2nnc(SCC(=O)c3ccc(Br)cc3)o2)c1 | 8.2 µM [rising, partial curve, poor fit] | 
45 | Cc1ccc(C)c(S(=O)(=O)N2CCN(C(=O)CSC(=S)N3CCCC3)CC2)c1 | 4.61 µM [rising, partial curve, poor fit] | 
46 | CCOc1ccc(-c2nc(N)ncc2Oc2cccc(OC)c2)c(O)c1 | 29.1 µM [falling, single point] | 
47 | Cn1ncc(C(=O)N=S(C)(=O)c2ccccc2)c1[N+](=O)[O-] (stereo not drawn) | 10 µM [falling, partial curve] | 
48 | O=C(Nc1ccccc1Cl)C1Cc2ccccc2O/C1=N\O (stereo not drawn) | 3.98 µM [rising, full curve, poor fit] | 
49 | CC(C)(C)NC(=O)COC(=O)c1ccccc1Nc1ccc(SC(F)F)cc1 | 18.4 µM [falling, single point] | 
50 | Fc1ccc(C2=Nn3c(nnc3-c3n[nH]c4c3CCC4)SC2)cc1 | 12.6 µM [rising, partial curve, poor fit] | 2.82 µM [falling, full curve, poor fit]
51 | C/C(=N\Nc1ncc(Cl)cc1Cl)c1ccc(C#N)cc1 | 35.5 µM [rising, partial curve, poor fit] | 
52 | Oc1ccc(CNc2cccc(F)c2F)c2cccnc12 | 2.06 µM [rising, partial curve] | 3.66 µM [falling, partial curve, poor fit]
53 | Cc1ccc(S(=O)(=O)N2C/C=C\CN(S(=O)(=O)c3ccccc3Br)CC2)cc1 | 29.1 µM [rising, single point] | 
54 | Cn1nc(-c2ccccc2F)c2cc(C(=O)Nc3ccc4c(c3)OCCO4)sc21 | 2.59 µM [rising, single point] | 
55 | O=C(N1CCCC1)C12CC3CC(C1)CC(C(=O)N1CCCC1)(C3)C2 | 12.6 µM [rising, single point] | 
56 | CCN(CC)CCCn1c2c(c(SCC(=O)Nc3cc(OC)cc(OC)c3)nc1=O)CCC2 | 16.4 µM [falling, partial curve] | 
57 | COc1ccc(C(=O)CC(=O)c2ccccc2O)cc1OC | 3.55 µM [rising, partial curve, poor fit] | 
58 | O=C(/C=C/c1ccco1)NC(=S)NNC(=O)c1ccco1 | 11.6 µM [falling, partial curve] | 
59 | O=C(NCCSc1ccccc1)c1cccnc1 | 2.24 µM [rising, full curve, poor fit] | 
60 | Cc1cccc(-n2c(C)cc(/C=C3/C(=N)N4C(c5ccccc5)=CSC4=NC3=O)c2C)c1 | 0.00411 µM [rising, full curve, poor fit] | 
61 | OCCC1CN(Cc2cc(F)ccc2-n2cccn2)CCN1C1CCCC1 (stereo not drawn) | 8.91 µM [rising, partial curve, poor fit] | 
62 | COC(=O)c1ccc(CSc2nnc(NC(=O)C3CC(=O)N(Cc4ccc(C)cc4)C3)s2)cc1 (stereo not drawn) | 1.64 µM [rising, partial curve, poor fit] | 
